Measured values: publication PMC5833736
Results are given in words; binding and its absence hold for the method and conditions named. Binding seen in cells or lysates may run through a third protein. Some entries that bind do so weakly or less than the wild type. Sequences can lack the tags named with a protein.

Sequences of proteins named here, by UniProt entry; tags and fusion partners are left off.
UniProt P42224: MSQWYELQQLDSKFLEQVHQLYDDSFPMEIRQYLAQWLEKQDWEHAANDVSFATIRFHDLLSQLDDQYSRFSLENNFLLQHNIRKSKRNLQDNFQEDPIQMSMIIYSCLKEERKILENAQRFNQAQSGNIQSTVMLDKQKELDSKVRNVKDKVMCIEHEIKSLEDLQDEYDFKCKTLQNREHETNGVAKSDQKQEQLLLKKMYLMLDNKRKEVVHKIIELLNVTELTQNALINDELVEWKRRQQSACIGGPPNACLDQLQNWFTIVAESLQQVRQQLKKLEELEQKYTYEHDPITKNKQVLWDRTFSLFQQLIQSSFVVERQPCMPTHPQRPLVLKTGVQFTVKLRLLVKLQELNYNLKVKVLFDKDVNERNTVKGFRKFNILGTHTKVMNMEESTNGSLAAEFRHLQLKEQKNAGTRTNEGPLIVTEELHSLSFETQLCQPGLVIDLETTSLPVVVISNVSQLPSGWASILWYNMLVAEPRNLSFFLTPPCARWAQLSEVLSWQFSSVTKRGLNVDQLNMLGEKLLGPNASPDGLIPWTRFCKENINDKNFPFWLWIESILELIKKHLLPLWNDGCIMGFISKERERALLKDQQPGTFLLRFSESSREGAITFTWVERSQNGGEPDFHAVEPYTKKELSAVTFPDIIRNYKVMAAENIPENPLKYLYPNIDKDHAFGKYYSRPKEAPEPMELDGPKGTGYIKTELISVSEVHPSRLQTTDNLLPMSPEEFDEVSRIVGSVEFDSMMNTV

Biological target: T1, promyelocytic leukemia zinc-finger protein (PLZF), Flag-tagged (human) (UniProt Q05516)
T1 sequence: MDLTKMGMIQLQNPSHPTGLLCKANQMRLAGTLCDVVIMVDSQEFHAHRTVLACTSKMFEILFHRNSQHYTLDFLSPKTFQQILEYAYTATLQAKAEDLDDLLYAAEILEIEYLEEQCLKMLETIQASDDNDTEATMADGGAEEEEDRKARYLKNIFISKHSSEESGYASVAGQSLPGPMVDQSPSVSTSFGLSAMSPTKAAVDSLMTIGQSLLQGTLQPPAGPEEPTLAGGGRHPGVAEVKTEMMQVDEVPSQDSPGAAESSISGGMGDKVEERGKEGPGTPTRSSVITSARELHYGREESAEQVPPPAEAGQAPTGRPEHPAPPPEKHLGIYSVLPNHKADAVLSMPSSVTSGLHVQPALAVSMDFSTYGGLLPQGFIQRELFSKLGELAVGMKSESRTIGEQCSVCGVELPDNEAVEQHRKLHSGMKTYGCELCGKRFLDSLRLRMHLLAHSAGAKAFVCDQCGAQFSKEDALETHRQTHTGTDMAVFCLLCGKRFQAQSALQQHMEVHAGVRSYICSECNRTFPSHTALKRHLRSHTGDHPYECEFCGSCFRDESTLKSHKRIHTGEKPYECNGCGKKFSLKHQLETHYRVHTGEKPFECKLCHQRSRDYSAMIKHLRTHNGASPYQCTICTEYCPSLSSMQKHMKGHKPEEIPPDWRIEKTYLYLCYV
Experiment: co-IP; HEK-293T cells transiently transfected with STAT1 and PLZF-Flag plasmids, lysed 48 h after transfection in IP lysis buffer with protease inhibitor cocktail and PMSF; precipitation with Flag beads (Sigma-Aldrich M8823), western blot

binding: binds
Substance: STAT1 (from UniProt P42224 1-750)
